The assay concerns serum uric acid (sUA). Kind of assay: Serum uric acid (sUA) levels and sUA responders, open-label study of pegloticase with MTX (NCT03635957). The class given is in vivo, human. The protocol: The primary objective is to estimate the response rate during Month 6 (Weeks 20, 22, and 24), as measured by the sustained normalization of serum uric acid (SUA) to <6 mg/dL for at least 80% of the time during Month 6 in subjects receiving KXX with MTX.
The primary efficacy outcome endpoint is the sustained normalization of SUA to <6 mg/dL for at least 80% of the time during month 6 (weeks 20, 22, and 24) in subjects receiving KXX with MTX. This is slightly below the urate solubility threshold and this threshold has been the accepted standard for nearly all modern gout trials. Participants who achieve this endpoint were classified as “responders.” Serum uric acid (SUA) responders may also be defined as participants achieving and maintaining SUA <6 mg/dL for at least 80% of the time during Month 6 (Weeks 20, 22, and 24).
Blood samples may be collected prior to each pegloticase infusion for measurement of SUA levels using the Beckman Coulter AU System Uric Acid procedure. Participants were declared “non-responders” if there were SUA measures >6 mg/dL at 2 consecutive study visits beginning with the week 2 visit. […] If the SUA goal is not maintained before or at the 12-week mark, it was assumed that the participant had developed clinically relevant anti-pegloticase antibody and they received no further infusions. This assumption and subsequent discontinuation of pegloticase was consistent with the protocol of large phase III randomized controlled trials and the product label. A formal stopping rule was 2 occasions of SUA levels of greater than 6 mg/dL.
Clinical Chemistry—Blood samples were collected prior to each pegloticase infusion for measurement of SUA levels (primary efficacy parameter) using the Beckman Coulter AU System Uric Acid procedure. In this procedure uric acid is converted to hydrogen peroxide. Hydrogen peroxide reacts with reagent to produce a chromophore which is read bichromatically at 660/800 nm. The amount of dye formed is proportional to the uric acid concentration in the sample.
Serum samples for measurement of SUA levels were collected at the Screening Visit, the Week −4 Visit (prior to the first dose of MTX), and the Week −2 Visit during the MTX Run-in Period; within 48 hours prior to each pegloticase infusion and after the end of each pegloticase infusion prior to discharge from the site during the Pegloticase+IMM Period; at the non-infusion Week 52/End of Study/Early Termination Visits and at the Post Treatment 3 and 6 Month Follow-up Visits. Additional serum samples for SUA levels were collected at optional non-infusion (Frequent Sampling) Visits at Weeks 1 and 7. […] Subjects with SUA level >6 mg/dL at 2 consecutive visits beginning at Week 2 visit discontinued treatment, completed the End of Pegloticase Infusion Visit procedures within 2 weeks and continued the subject visits according to the protocol (without treatment).
Efficacy analyses were performed using the modified intention-to-treat (mITT) population, defined as all enrolled subjects who received ≥1 dose of pegloticase. The proportion of Month 6 responders was summarized, along with a 95% confidence interval for the proportion. The proportion of Month 3 and overall (Months 3 and 6 combined) responders was analyzed similarly.
A subject was declared a non-responder if the subject had SUA level >6 mg/dL at 2 consecutive study visits beginning with the Week 2 Visit. In addition, a subject who withdraws from study treatment for any reason after the first dose of pegloticase in the KXX+MTX Period and prior to Month 6 (for the primary endpoint) or Month 3 (for the secondary endpoint) was considered a non-responder if SUA values were not collected at the planned time points.
Patients were administered oral MTX (15 mg/week) and folate (1 mg/day) 4 weeks prior to the first pegloticase infusion (Day 1) and throughout the pegloticase treatment period. […]

The mark [1] stands for this setting: Week 8 - Post-Infusion, Month 6 sUA Non-Responders.
Setting [2] is: Week 8 - Post-Infusion, Month 6 sUA Responders.
The mark [3] stands for this setting: Week 8 - Pre-Infusion, Month 6 sUA Non-Responders.
The mark [4] stands for this setting: Week 8 - Pre-Infusion, Month 6 sUA Responders.
Setting [5] is: Week 10 - Pre-Infusion, Month 6 sUA Non-Responders.
Where [6] appears, read: Week 10 - Pre-Infusion, Month 6 sUA Responders.

Further values from the same series stand in other lists.

B1: pegloticase (protein)
chain: TYKKNDEVEFVRTGYGKDMIKVLHIQRDGKYHSIKEVATTVQLTLSSKKDYLHGDNSDVIPTDTIKNTVNVLAKFKGIKSIETFAVTICEHFLSSFKHVIRAQVYVEEVPWKRFEKNGVKHVHAFIYTPTGTHFCEVEQIRNGPPVIHSGIKDLKVLKTTQSGFEGFIKDQFTTLPEVKDRCFATQVYCKWRYHQGRDVDFEATWDTVRSIVLQKFAGPYDKGEYSPSVQKTLYDIQVLTLGQVPEIEDMEISLPNIHYLNIDMSKMGLINKEEVLLPLDNPYGKITGTVKRKLSSRL
modifications: monomethoxy PEG conjugated; Krystexxa Sequence
notes: covalent conjugate of uricase produced by a genetically modified strain of Escherichia coli and monomethoxypoly (ethylene glycol)
For B1, the “sUA Change from Baseline, Median” value is, setting by setting: (Week 7, Month 6 sUA Responders) -7.85 mg/dL; under setting [1], -9.10 mg/dL; under setting [2], -8.80 mg/dL; under setting [3], -0.50 mg/dL; under setting [4], -8.60 mg/dL; under setting [5], -1.30 mg/dL. Besides, the “sUA Change from Baseline, Median” value under setting [6] was -8.80 mg/dL. In addition, the “sUA Observed, Median” value is 0.30 mg/dL (Week 7, Month 6 sUA Responders); 0.30 mg/dL under setting [1]; 0.30 mg/dL under setting [2]; 8.90 mg/dL under setting [3]; 0.30 mg/dL under setting [4]; 8.10 mg/dL under setting [5]. Also, the “sUA Observed, Median” value under setting [6] turned out to be 0.30 mg/dL.

Values taken from US20220323445A1, “REDUCING IMMUNOGENICITY TO PEGLOTICASE” (Horizon Therapeutics Ireland DAC, priority 2020, published 2022).
